# Experimental data taken from the supplement of paper PMC12067093, “Discovery and optimisation of a covalent ligand for TRIM25 and its application to targeted protein ubiquitination” (Chemical Science, 2025).
# Chains of the proteins cited; added tags and fusions are not shown. Lines headed by an entry give the natural chain unless they say otherwise; changes in a name come on top.
# UniProt Q01968: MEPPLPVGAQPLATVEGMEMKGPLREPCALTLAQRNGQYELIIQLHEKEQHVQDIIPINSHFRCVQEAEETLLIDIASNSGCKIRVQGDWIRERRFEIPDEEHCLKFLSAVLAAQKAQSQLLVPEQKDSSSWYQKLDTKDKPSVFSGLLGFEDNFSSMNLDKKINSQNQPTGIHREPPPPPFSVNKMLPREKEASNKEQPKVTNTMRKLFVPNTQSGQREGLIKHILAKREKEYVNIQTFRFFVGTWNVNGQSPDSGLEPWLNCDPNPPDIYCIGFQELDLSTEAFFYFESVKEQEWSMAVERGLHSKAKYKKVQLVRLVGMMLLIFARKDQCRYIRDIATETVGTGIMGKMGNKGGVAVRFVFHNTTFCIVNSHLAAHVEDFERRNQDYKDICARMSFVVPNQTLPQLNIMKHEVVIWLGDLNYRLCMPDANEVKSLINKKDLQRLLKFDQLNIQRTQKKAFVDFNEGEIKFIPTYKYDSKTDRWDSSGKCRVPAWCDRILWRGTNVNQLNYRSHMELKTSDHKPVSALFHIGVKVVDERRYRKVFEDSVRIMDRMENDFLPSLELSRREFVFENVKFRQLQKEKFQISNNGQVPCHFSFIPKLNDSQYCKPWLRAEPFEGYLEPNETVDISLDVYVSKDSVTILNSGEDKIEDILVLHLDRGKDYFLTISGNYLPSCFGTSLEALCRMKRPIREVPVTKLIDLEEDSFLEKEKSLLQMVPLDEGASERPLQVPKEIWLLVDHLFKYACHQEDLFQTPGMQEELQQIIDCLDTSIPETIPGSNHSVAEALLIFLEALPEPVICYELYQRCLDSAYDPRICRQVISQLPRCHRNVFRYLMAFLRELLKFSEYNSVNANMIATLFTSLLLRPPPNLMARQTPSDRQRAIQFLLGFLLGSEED
# UniProt Q8WUM0: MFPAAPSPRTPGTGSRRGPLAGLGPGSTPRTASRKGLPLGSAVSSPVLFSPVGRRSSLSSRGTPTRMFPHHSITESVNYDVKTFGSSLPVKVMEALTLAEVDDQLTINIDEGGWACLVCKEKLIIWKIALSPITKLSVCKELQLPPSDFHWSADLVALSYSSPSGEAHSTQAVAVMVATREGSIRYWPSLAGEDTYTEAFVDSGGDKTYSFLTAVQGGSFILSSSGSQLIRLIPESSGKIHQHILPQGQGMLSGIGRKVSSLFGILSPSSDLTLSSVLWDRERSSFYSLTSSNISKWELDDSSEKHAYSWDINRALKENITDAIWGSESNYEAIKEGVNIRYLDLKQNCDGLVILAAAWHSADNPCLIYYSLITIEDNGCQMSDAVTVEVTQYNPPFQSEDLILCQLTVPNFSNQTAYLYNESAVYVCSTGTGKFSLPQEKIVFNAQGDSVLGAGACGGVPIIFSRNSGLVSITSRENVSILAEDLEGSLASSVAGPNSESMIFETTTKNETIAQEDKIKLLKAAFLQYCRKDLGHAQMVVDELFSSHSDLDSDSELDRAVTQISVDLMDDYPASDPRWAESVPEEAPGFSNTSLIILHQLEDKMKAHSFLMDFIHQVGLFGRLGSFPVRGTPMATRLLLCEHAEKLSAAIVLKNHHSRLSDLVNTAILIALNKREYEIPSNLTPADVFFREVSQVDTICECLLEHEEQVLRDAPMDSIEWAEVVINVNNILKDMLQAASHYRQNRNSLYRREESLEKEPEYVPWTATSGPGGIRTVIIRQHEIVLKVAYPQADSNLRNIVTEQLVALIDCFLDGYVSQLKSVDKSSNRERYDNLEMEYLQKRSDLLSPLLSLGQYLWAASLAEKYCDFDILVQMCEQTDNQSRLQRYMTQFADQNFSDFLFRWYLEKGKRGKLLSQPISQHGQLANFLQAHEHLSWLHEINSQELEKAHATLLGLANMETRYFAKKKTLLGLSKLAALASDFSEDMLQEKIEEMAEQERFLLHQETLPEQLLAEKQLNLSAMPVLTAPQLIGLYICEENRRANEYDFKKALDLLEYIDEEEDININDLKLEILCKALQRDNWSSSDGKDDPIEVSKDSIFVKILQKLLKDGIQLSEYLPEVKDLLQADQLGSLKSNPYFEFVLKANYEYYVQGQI
# UniProt P78549: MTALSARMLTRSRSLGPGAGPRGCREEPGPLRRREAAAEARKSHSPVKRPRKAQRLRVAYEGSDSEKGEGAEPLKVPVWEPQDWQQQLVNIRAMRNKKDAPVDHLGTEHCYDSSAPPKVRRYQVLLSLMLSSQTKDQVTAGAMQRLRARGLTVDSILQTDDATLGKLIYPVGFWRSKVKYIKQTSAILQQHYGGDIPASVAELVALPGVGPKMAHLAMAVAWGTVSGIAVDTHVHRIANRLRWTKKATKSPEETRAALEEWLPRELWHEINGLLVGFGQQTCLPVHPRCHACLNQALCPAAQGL
# UniProt Q5SRE5: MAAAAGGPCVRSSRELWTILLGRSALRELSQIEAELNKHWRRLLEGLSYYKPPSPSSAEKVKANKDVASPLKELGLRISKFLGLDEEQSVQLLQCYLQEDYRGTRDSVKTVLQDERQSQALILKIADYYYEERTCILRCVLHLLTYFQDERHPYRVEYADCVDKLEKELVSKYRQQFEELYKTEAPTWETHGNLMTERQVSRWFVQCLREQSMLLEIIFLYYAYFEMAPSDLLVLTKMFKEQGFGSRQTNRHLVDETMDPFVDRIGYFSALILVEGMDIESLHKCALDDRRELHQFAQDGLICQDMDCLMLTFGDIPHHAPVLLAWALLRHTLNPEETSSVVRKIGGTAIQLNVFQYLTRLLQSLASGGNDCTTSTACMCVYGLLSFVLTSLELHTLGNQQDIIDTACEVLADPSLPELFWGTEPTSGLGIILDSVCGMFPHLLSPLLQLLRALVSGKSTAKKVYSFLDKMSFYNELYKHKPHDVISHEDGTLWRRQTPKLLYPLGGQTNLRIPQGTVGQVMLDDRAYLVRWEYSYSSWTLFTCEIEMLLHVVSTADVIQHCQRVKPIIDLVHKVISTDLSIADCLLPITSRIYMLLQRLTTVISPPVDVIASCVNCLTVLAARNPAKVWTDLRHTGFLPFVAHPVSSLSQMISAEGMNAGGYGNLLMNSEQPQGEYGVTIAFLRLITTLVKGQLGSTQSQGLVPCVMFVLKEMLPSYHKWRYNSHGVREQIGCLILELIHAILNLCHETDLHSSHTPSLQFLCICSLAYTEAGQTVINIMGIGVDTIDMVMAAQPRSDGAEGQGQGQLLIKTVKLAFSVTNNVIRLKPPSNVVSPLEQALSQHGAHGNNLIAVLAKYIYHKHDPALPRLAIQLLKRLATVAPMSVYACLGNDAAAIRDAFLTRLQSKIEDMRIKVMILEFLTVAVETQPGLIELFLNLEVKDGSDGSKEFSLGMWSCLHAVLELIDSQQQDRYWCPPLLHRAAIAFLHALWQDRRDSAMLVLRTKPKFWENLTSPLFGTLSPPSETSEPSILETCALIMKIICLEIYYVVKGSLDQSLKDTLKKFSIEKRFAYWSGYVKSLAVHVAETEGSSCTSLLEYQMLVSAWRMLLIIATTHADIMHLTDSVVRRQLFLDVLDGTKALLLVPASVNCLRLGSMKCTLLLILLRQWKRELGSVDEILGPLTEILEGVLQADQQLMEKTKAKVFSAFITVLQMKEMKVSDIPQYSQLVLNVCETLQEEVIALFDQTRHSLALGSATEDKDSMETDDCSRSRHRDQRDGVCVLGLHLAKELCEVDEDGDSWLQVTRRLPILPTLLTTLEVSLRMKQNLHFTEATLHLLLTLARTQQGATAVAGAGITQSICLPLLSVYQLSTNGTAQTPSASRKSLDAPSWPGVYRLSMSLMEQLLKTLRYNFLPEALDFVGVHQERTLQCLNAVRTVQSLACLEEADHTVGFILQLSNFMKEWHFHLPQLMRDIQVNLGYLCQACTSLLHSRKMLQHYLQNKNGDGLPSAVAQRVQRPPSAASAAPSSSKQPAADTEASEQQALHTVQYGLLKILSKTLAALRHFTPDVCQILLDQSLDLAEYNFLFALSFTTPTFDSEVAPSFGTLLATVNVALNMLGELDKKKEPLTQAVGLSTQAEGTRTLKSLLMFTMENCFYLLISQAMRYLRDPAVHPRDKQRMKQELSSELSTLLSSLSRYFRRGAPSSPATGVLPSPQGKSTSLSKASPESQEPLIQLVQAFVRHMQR
# UniProt P52948: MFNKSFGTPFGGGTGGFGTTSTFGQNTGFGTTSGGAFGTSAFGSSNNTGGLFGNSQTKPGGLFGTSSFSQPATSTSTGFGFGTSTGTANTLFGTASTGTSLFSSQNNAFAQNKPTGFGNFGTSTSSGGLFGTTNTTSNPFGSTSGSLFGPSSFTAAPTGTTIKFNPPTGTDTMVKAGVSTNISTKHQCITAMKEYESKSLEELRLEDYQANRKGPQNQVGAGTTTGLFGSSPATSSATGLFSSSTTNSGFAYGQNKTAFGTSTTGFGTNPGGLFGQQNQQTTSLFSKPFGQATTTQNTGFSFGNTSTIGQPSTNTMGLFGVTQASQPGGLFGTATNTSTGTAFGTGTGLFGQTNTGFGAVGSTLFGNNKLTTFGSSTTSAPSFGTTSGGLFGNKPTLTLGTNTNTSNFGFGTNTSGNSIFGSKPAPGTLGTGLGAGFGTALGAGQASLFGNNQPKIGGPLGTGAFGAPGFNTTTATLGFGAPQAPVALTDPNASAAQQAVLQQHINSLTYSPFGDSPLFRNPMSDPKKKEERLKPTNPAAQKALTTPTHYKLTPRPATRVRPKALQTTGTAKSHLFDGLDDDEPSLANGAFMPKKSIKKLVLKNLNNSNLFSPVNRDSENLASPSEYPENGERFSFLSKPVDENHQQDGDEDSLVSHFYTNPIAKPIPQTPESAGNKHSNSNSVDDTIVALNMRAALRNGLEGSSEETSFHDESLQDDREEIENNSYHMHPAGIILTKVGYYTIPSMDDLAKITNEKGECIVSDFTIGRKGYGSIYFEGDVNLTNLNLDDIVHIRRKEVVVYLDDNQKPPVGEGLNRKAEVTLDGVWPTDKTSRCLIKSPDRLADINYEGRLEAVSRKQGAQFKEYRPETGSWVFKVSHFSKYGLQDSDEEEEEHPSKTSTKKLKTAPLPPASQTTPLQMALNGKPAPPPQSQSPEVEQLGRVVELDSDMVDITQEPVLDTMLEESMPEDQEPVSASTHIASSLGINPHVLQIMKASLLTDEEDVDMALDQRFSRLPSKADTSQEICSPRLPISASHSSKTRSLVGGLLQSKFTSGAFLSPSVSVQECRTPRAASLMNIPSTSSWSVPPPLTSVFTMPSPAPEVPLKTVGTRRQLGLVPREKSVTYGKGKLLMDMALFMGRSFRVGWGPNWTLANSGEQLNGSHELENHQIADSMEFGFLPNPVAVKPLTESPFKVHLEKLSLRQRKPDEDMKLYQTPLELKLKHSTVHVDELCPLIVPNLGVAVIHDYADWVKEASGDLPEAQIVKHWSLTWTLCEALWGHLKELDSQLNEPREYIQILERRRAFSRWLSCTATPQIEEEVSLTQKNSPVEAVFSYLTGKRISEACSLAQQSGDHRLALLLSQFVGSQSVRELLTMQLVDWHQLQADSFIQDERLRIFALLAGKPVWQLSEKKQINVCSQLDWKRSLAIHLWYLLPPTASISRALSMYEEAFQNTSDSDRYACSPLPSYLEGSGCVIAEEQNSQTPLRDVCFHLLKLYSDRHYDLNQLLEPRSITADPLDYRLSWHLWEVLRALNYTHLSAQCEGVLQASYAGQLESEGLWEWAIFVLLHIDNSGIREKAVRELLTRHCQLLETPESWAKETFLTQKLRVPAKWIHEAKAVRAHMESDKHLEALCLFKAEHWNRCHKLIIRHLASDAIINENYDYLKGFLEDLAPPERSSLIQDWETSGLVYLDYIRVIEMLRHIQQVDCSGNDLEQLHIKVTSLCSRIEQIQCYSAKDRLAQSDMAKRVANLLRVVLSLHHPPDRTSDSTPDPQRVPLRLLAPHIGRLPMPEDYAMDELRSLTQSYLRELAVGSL
# UniProt Q96RS6: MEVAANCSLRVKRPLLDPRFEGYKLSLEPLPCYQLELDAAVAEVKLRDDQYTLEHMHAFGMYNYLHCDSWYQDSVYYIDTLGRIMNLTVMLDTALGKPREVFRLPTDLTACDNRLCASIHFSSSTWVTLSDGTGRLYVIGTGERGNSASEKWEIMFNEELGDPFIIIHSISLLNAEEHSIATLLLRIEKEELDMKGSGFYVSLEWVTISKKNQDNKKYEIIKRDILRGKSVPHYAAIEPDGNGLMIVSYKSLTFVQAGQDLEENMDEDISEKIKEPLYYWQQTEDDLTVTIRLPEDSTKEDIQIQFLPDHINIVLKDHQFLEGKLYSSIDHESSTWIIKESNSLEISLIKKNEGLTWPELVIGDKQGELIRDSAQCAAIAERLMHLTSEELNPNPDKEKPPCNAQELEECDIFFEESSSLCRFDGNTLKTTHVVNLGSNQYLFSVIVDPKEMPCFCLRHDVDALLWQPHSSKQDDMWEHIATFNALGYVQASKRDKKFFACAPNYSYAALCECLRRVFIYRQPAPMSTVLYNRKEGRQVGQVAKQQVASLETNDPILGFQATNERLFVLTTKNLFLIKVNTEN
# The list shows a part of the results.
# Compound: CC1Cc2ccccc2N1C(=O)C1CCCN(C1)C(=O)CCl (mixture of isomers) [TRIM25 ligand 11 (diastereomer mixture)]
# Experiment: probe-labelled cysteine peptide fold change vs DMSO (competition) (log2 fold change); higher = less target engagement (more negative = stronger competition)
# Settings: THP-1, incubation time: 4 h
# 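Note: competitive chemoproteomic profiling in live THP-1 cells with an iodoacetamide desthiobiotin (IA-DTB) probe, comparing probe-labelled peptide intensities in compound-treated cells against DMSO-treated controls.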
Target,probe-labelled cysteine peptide fold change (10 µM),probe-labelled cysteine peptide fold change (50 µM)
OCRL_Q01968_28_GPLREPCALTLAQR (UniProt Q01968),-0.00867,0.0595
NUP133_Q8WUM0_700+702_EVSQVDTICECLLEHEEQVLR (UniProt Q8WUM0),0.507,0.631
NTHL1_P78549_118_DAPVDHLGTEHCYDSSAPPK (UniProt P78549),0.0981,0.0312
NUP188_Q5SRE5_161_VEYADCVDK (UniProt Q5SRE5),0.394,0.321
NTMT1_Q9BV86_195_IICSAGLSLLAEERQENLPDEIYHVYSFALR (UniProt Q9BV86),-0.201,-0.526
NUP98_P52948_760_GECIVSDFTIGRK (UniProt P52948),-0.203,-0.173
NVL_O15381_309_GVLLHGPPGCGK (UniProt O15381),0.0215,0.162
OGFOD1_Q8N543_154_YEFTDALLCHDDELEGRR (UniProt Q8N543),0.0585,-0.00364
NUDCD1_Q96RS6_7_MEVAANCSLR (UniProt Q96RS6),0.178,-0.22
OCIAD2_Q56VL3_46_ECQEESFWK (UniProt Q56VL3),0.0208,0.159
NUP155_O75694_667_HNGICIYFSR (UniProt O75694),-0.0348,0.207
NUP133_Q8WUM0_1037_QLNLSAMPVLTAPQLIGLYICEENRR (UniProt Q8WUM0),-0.119,-0.16
NUDT18_Q6ZVK8_185+189_HPLILPQELPCDLVCQR (UniProt Q6ZVK8),-0.0276,0.194

# A stretch from the list above:
Target,probe-labelled cysteine peptide fold change (10 µM),probe-labelled cysteine peptide fold change (50 µM)
NTHL1_P78549_118_DAPVDHLGTEHCYDSSAPPK (UniProt P78549),0.0981,0.0312
NUP188_Q5SRE5_161_VEYADCVDK (UniProt Q5SRE5),0.394,0.321
